Experimental data reported in US20220175729A1, “PHARMACEUTICAL USE OF CHLOROPHYLLIDE FOR CANCER THERAPY” (I-SHOU UNIVERSITY, priority 2020, published 2022).

Test system: MCF7 breast cancer cells
Assay: Differential gene expression analysis by NGS, MCF7
Type: cell-based, human
Conditions: treated versus untreated MCF7; FIG. 7

## chlorophyllide
  number of differentially expressed genes: 124
  number of negative regulated genes: 81
  number of positive regulated genes: 43
